We go through two substances from paper PMC4552727.

By UniProt entry, the sequences of proteins in these tests, tags left out.
UniProt O55003: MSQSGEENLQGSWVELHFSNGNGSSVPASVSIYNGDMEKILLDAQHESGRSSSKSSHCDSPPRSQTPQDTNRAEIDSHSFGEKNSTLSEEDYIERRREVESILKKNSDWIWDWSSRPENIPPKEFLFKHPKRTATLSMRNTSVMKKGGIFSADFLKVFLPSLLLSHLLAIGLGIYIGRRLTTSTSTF
UniProt B2RWS6: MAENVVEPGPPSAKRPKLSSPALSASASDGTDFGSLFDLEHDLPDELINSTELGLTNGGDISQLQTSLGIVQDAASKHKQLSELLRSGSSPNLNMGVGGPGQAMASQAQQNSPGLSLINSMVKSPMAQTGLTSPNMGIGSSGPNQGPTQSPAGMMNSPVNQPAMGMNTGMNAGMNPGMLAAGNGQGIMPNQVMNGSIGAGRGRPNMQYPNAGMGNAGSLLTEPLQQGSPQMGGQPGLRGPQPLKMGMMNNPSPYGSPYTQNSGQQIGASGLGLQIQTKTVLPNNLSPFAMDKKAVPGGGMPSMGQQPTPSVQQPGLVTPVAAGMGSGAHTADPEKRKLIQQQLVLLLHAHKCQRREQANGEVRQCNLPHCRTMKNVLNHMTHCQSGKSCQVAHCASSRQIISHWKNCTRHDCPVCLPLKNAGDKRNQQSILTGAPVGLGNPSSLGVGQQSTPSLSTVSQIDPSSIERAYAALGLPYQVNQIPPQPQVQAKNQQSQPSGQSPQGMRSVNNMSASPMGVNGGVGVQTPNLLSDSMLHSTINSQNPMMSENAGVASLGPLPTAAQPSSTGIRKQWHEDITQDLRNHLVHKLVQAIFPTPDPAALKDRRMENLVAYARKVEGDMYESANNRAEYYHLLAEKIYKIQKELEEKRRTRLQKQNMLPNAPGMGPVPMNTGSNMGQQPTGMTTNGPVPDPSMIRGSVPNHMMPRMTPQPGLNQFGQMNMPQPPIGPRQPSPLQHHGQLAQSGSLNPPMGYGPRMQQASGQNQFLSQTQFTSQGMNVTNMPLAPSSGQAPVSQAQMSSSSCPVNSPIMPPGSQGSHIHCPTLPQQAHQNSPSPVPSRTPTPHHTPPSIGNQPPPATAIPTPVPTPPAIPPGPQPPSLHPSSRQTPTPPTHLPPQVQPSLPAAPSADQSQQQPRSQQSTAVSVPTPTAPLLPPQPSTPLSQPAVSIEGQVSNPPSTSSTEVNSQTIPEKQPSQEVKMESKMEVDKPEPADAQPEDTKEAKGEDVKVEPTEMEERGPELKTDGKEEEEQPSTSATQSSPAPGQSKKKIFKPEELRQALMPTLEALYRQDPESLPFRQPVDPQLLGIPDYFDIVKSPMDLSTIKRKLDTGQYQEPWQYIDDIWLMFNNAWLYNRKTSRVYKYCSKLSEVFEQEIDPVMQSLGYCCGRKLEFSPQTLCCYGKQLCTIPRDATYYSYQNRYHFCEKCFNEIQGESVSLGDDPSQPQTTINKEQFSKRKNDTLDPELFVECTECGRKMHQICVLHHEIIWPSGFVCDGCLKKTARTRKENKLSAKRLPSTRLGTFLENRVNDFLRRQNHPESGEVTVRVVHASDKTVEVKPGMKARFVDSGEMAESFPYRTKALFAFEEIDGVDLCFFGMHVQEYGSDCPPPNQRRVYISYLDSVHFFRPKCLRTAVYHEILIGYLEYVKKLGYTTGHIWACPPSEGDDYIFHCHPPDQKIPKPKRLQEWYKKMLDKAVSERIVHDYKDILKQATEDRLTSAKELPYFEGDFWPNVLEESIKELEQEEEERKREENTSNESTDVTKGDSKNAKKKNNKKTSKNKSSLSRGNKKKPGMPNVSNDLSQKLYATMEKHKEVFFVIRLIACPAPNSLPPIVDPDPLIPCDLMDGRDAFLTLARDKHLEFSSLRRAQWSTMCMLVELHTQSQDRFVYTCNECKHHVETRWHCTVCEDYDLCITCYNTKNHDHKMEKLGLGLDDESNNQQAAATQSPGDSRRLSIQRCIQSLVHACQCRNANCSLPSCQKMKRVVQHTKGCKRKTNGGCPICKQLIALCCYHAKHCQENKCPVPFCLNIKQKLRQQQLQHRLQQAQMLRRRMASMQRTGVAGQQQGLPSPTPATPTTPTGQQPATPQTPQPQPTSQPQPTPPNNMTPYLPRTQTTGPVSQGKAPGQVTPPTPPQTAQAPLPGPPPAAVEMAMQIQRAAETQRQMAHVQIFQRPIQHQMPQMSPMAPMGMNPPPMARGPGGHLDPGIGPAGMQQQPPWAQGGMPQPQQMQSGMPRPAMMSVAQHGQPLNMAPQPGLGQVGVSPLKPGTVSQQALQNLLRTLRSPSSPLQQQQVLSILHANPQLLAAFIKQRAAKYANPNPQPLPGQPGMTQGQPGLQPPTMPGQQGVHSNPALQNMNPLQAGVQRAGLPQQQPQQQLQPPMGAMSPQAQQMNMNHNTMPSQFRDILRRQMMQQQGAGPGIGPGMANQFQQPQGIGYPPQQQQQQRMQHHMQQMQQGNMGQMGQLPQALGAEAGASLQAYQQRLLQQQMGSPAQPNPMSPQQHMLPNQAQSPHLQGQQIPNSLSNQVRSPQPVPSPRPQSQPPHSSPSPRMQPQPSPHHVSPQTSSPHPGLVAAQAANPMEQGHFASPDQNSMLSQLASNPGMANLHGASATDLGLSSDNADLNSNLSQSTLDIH
UniProt Q921J2: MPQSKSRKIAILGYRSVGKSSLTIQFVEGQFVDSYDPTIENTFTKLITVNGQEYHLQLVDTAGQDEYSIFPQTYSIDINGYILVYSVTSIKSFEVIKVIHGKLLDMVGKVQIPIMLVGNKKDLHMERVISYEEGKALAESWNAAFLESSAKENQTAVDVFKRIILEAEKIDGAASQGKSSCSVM
UniProt Q08369: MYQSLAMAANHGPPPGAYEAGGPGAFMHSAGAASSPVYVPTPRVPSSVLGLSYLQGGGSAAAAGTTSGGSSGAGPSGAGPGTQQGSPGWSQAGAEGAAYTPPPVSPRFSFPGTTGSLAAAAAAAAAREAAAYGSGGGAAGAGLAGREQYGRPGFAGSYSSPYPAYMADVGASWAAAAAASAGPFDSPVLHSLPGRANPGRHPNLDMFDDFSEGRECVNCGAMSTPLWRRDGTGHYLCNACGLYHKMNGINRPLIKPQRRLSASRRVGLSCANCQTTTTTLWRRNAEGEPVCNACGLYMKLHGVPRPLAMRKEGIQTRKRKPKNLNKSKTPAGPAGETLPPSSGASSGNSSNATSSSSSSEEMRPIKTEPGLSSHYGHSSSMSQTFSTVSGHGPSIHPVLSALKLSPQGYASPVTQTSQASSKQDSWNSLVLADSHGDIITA

The target in assay [1] is Bnip3 in mouse heart (endogenous in wild type, overexpressed from the α-MHC promoter transgene in Bnip3-TG) (not stated (transgene cDNA); mouse (endogenous in wild type mouse heart)) (UniProt O55003). The assay is described as follows: co-IP; reciprocal Bnip3 and Rheb immunoprecipitation from myocardial lysates of Bnip3-TG and wild type mice, western blot. For orientation: In western blotting, separated proteins are transferred to a membrane and probed.

The target of assay [2] is p300 histone acetyltransferase, endogenous in mouse heart (mouse (endogenous in mouse heart)) (UniProt B2RWS6). Nature of the assay: co-IP; reciprocal immunoprecipitation of p300 and GATA4 from nuclear lysates of wild type and Bnip3-TG mouse hearts, western blot.
The target is the same in assay [3]. The assay is described as follows: co-IP; p300 immunoprecipitated from hearts of wild type, Bnip3-TG, and Bnip3-TG mice treated with vehicle or curcumin; western blot for GATA4.

Results are given in words; binding and its absence hold for the method and conditions named. In cells and extracts the contact can be indirect. Some binding calls cover weakened binding; strength is not graded here.

With “Rheb (Ras homolog enriched in brain), endogenous in mouse heart (from UniProt Q921J2 1-184)”, in assay [1], the binding result is recorded as “binds”. For “GATA4 transcription factor, endogenous in mouse heart (from UniProt Q08369 1-441)”, the binding result in assay [2] and in assay [3] was “binds” in each case.
